Drawing on article PMC3795677, this text covers binding for three molecules.

Assay [1] addresses EvgS-mYFP (sensory histidine kinase EvgS with C-terminal monomeric yellow fluorescent protein EYFP A206K) (E. coli) (UniProt P30855). Kind of assay: FRET or BRET; homo-FRET read as steady-state fluorescence anisotropy of mYFP-tagged sensors in live MG1655 cells immobilised on a coverslip; expression varied with 0-100 µM IPTG; low anisotropy taken as self-association.
Assay [2] deals with T1, TorS-mYFP (sensory histidine kinase TorS with C-terminal monomeric yellow fluorescent protein EYFP A206K) (E. coli) (UniProt P39453).
T1 sequence: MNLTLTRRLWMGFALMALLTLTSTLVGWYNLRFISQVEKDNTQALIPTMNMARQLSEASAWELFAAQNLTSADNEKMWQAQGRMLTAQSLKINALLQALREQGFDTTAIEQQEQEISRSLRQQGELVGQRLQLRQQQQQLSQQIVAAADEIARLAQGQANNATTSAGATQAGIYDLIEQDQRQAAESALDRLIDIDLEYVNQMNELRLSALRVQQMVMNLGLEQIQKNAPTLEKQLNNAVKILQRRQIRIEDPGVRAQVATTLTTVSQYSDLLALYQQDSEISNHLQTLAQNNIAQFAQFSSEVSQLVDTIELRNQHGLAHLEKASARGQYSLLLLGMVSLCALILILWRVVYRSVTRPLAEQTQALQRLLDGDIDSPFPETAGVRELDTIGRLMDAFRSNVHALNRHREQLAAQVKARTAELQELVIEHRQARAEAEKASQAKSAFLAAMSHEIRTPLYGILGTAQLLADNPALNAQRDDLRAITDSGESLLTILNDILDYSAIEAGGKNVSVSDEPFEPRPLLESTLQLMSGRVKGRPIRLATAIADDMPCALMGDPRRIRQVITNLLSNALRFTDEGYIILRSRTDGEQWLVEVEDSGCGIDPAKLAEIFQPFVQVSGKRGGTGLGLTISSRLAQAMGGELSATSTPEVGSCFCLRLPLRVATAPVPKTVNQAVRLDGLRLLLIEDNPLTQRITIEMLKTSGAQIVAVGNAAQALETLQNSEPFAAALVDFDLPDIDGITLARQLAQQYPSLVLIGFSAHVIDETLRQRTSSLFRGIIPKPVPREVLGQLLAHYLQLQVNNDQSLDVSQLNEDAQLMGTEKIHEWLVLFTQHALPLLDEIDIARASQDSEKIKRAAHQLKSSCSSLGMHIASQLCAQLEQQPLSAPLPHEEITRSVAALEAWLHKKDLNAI
The description is as above.

In assay [3] the target is T1, TorS-mYFP (sensory histidine kinase TorS with C-terminal monomeric yellow fluorescent protein EYFP A206K) (E. coli). Kind of assay: FRET or BRET; spectral-shift FRET by acceptor photobleaching in live E. coli cells co-expressing an mCFP and an mYFP fusion; mYFP bleached 20 s with a 532 nm laser; an increase of the CFP signal of more than 0.5 % counts as a positive FRET pair. In general terms: BRET reads energy transfer from a luciferase to a nearby fluorophore.

No constants are given. Whether binding was seen depends on the method and setting. In cells and extracts the contact can be indirect. Some entries that bind do so weakly or less than the wild type. Sequences can lack the tags named with a protein.

B1: EvgS-mYFP (sensory histidine kinase EvgS with C-terminal monomeric yellow fluorescent protein EYFP A206K) (protein, UniProt P30855 22-1197)
chain: DEDYIEYRGISSNNRVTLDPLRLSNKELRWLASKKNLVIAVHKSQTATLLHTDSQQRVRGINADYLNLLKRALNIKLTLREYADHQKAMDALAEGEVDIVLSHLVTSPPLNNDIAATKPLIITFPALVTTLHDSMRPLTSPKPVNIARVANYPPDEVIHQSFPKATIISFTNLYQALASVSAGHNDYFIGSNIITSSMISRYFTHSLNVVKYYNSPRQYNFFLTRKESVILNEVLNRFVDALTNEVRYEVSQNWLDTGNLAFLNKPLELTEHEKQWIKQHPNLKVLENPYSPPYSMTDENGSVRGVMGDILNIITLQTGLNFSPITVSHNIHAGTQLSPGGWDIIPGAIYSEDRENNVLFAEAFITTPYVFVMQKAPDSEQTLKKGMKVAIPYYYELHSQLKEMYPEVEWIQVDNASAAFHKVKEGELDALVATQLNSRYMIDHYYPNELYHFLIPGVPNASLSFAFPRGEPELKDIINKALNAIPPSEVLRLTEKWIKMPNVTIDTWDLYSEQFYIVTTLSVLLVGSSLLWGFYLLRSVRRRKVIQGDLENQISFRKALSDSLPNPTYVVNWQGNVISHNSAFEHYFTADYYKNAMLPLENSDSPFKDVFSNAHEVTAETKENRTIYTQVFEIDNGIEKRCINHWHTLCNLPASDNAVYICGWQDITETRDLINALEVEKNKAIKATVAKSQFLATMSHEIRTPISSIMGFLELLSGSGLSKEQRVEAISLAYATGQSLLGLIGEILDVDKIESGNYQLQPQWVDIPTLVQNTCHSFGAIAASKSIALSCSSTFPEHYLVKIDPQAFKQVLSNLLSNALKFTTEGAVKITTSLGHIDDNHAVIKMTIMDSGSGLSQEEQQQLFKRYSQTSAGRQQTGSGLGLMICKELIKNMQGDLSLESHPGIGTTFTITIPVEISQQVATVEAKAEQPITLPEKLSILIADDHPTNRLLLKRQLNLLGYDVDEATDGVQALHKVSMQHYDLLITDVNMPNMDGFELTRKLREQNSSLPIWGLTANAQANEREKGLSCGMNLCLFKPLTLDVLKTHLSQLHQVAHIAPQYRHLDIEALKNNTANDLQLMQEILMTFQHETHKDLPAAFQALEAGDNRTFHQCIHRIHGAANILNLQKLINISHQLEITPVSDDSKPEILQLLNSVKEHIAELDQEIAVFCQKND
Consider B1, for which the binding result in assay [1] is “binds”.

B2: TorS-mYFP (sensory histidine kinase TorS with C-terminal monomeric yellow fluorescent protein EYFP A206K) (protein, UniProt P39453 1-914)
chain: MNLTLTRRLWMGFALMALLTLTSTLVGWYNLRFISQVEKDNTQALIPTMNMARQLSEASAWELFAAQNLTSADNEKMWQAQGRMLTAQSLKINALLQALREQGFDTTAIEQQEQEISRSLRQQGELVGQRLQLRQQQQQLSQQIVAAADEIARLAQGQANNATTSAGATQAGIYDLIEQDQRQAAESALDRLIDIDLEYVNQMNELRLSALRVQQMVMNLGLEQIQKNAPTLEKQLNNAVKILQRRQIRIEDPGVRAQVATTLTTVSQYSDLLALYQQDSEISNHLQTLAQNNIAQFAQFSSEVSQLVDTIELRNQHGLAHLEKASARGQYSLLLLGMVSLCALILILWRVVYRSVTRPLAEQTQALQRLLDGDIDSPFPETAGVRELDTIGRLMDAFRSNVHALNRHREQLAAQVKARTAELQELVIEHRQARAEAEKASQAKSAFLAAMSHEIRTPLYGILGTAQLLADNPALNAQRDDLRAITDSGESLLTILNDILDYSAIEAGGKNVSVSDEPFEPRPLLESTLQLMSGRVKGRPIRLATAIADDMPCALMGDPRRIRQVITNLLSNALRFTDEGYIILRSRTDGEQWLVEVEDSGCGIDPAKLAEIFQPFVQVSGKRGGTGLGLTISSRLAQAMGGELSATSTPEVGSCFCLRLPLRVATAPVPKTVNQAVRLDGLRLLLIEDNPLTQRITIEMLKTSGAQIVAVGNAAQALETLQNSEPFAAALVDFDLPDIDGITLARQLAQQYPSLVLIGFSAHVIDETLRQRTSSLFRGIIPKPVPREVLGQLLAHYLQLQVNNDQSLDVSQLNEDAQLMGTEKIHEWLVLFTQHALPLLDEIDIARASQDSEKIKRAAHQLKSSCSSLGMHIASQLCAQLEQQPLSAPLPHEEITRSVAALEAWLHKKDLNAI
Consider B2, for which the binding result in assay [2] was “binds”.

B3: TorR-mCFP (response regulator TorR fused to monomeric cyan fluorescent protein) (protein, UniProt P38684 1-230)
chain: MPHHIVIVEDEPVTQARLQSYFTQEGYTVSVTASGAGLREIMQNQSVDLILLDINLPDENGLMLTRALRERSTVGIILVTGRSDRIDRIVGLEMGADDYVTKPLELRELVVRVKNLLWRIDLARQAQPHTQDNCYRFAGYCLNVSRHTLERDGEPIKLTRAEYEMLVAFVTNPGEILSRERLLRMLSARRVENPDLRTVDVLIRRLRHKLSADLLVTQHGEGYFLAADVC
For B3, the binding result in assay [3] is given as “binds”.
